Reference: the RNAGym collection of RNA variant scans (doi:10.1126/science.aae0568)
Variants at the background level are over-represented here.

B1: tRNA (parent)
chain: GUUCCGUUGGCGUAAUGGUAACGCGUCUCCCUCCUAAGGAGAAGACUGCGGGUUCGAGUCCCGUACGGAACG

Variants of: B1
Assay: yeast fitness relative to wild type (ratio to wild type); higher = fitter; tRNA-Arg(CCU), competitive growth, 37 C, YPD
In short: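 Start and end populations of a pooled competition were compared by 100-nucleotide paired-end sequencing of gene amplicons. The Saccharomyces cerevisiae strains carried tRNA-Arg(CCU) gene variants at the native genomic locus, synthesised with a 3% per-site mutation rate at 69 sites, and competed in YPD at 37°C for 24 hours in six parallel replicates. Darwinian fitness relative to wild type was based on the change in genotype frequencies. Genotypes required ≥ 100 starting reads, and estimates < 0.5 were set to 0.5.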

Variant	yeast fitness
GUUCCGUUGGCGUAAAGGUAACGGGUCUGCGUCCUAAGGAGAAGACUGCGGGUUCGAGUCACGUACGGAACG	≤ 0.5
GUUCCGUUGGCGUGAUGGUAACGCGUCUCCCUCCUAAGGAGAAGACUGCGGGUUCGUGUCCCGUUCGGAACG	≤ 0.5
GUUCCGUUGGCGUAAUGGUAACGCGUCUCCCUCCUAAGCAGAAGACUCCGGGUUCGAGUCCCCUAGGGAACG	≤ 0.5
GUUCCGUUGGCAUAAUGGUAACGCGUAUCCCUCCUAAGGAGAAGUCUGCGGGUUCGAGUCCCGUACCGAACG	≤ 0.5
GUUCCGUUGGCGUAAUGGUAACGCGUCUGCCUCCUAAGGAGAAGACUGGGGGUUUGAGUCCCGUACGGAACG	≤ 0.5
GUUCCGUUGGCGUAAUGGUAACGCGUCUCGCUCCUGAGGAGAAGACUGCGGGUUCGUGUCCCGUACGGAACG	≤ 0.5
GUUCCGUUGGCGUAAUGGAAACGCGUCUCCCUUCUAAGGAGAAGACUGCGGGUUCGAGUCUCGUACGGAACG	≤ 0.5
GUUCCGUUGGCGUAAUGGUCACGCGUCUCCCUCCAGAGGAGAACACUGCGGGUUCGAGUCCCGUACGUAACG	≤ 0.5
GUUCCGUCGGCAUAAUGGUAACGCGUCUCCUUCCUAAGGAGAAGACUGCGGAUUCCAGUCCCGUACGGAACG	≤ 0.5
GUUCCGUUGGCGUAAUGGUAACGCGUCGCACGCCUAAGGAGAAGGCUGCGGGUUUGAGUCCCGUACGGAACG	≤ 0.5
GUUCCGUCGGCGGAAUGGUAAUGCGUCUCCCUCCUAAGGAGAAGACUGCGGGUUCGAGUCCCGUACGGAGCG	≤ 0.5
GUUCCCUUGGCGUAAUGGUAACGCGUCUCCCUCCUAAGGAGAAGACUGCGGGUUCGAGACCCGUAAGGAACG	≤ 0.5
GGUCCGUUGGCGUAAUGAUAACGCGUCUCCCUCCUAAGGAGAAGACUGCGGGUUCGAGUUACGUACCGAACG	≤ 0.5
GUUCCGUUGGCGUAAUAGUAACGCGUCUCUCUCAUAAGGGGAAGACUGCGGGUUCGAGUCCCGUAUGGAACG	≤ 0.5
GUUCCGUUGGAGUAAUGGUAACGCGUCUCCCUCCUAAGGAGAAGAUUGCGGGUUCCAGUCCCGUACGGGACG	≤ 0.5
GUUCCGUUGGCGCAAUGGUAACGCGUCUCCCUCCUAAGGAGAAGACUGCGGGUACGAGUUCCGUACGGAACG	≤ 0.5
GUUCCGUUGGCGUAAGGGUAACGCGUAUCCCUCCUAAGGAGAAGAAUGCGGGUUCGAGUCCCGUACGGAACG	≤ 0.5
GUUCCCUUGGUCUAAUGGUAACGCGUCUCUUUCCUAAGGAGAAGACUGCGGGUUCGAGUCCCGUACGGAACG	≤ 0.5
GUUCCGUUGGCGUAAUCGUAACGGGUCUCCCUCCUAAGGAGAAGACUGCGGGUUCGAGUCCCCUACGGAACG	≤ 0.5
GUUCCGUUGGCGUAAUGGUAACGCGUCUCCCUCCUAAGGAGAUGACUGCGGGUUCGAGUCCCGCACGGAACG	1.02
GUUUCGUUGGCGUAAUGGUAACCCGUCUCCCUCCUGAGGAGAAGACUGCGGGUUCGAGUCCCGUAUGGAACG	≤ 0.5
GUUCCGUUGGCGUAAUGGUAACGCGUCUCCCUCCUACGGAGAAGACUGCGGGUUCGAGCCCCGUACGGAACG	0.699
GUUUCGUAGGCGUAAUGGUAACGCGUCUCCCGCCAAAGGAGAAGACUGCGGGUUCGAGUCCCGUACGGAACG	≤ 0.5
GUUCCGUUGGCGUAAUGUUAACGCGUCUCCCUCCUAAGAAGAAGACUGCGGGUUCGAGUCCAGUACGGUACG	≤ 0.5
GUUCCGUUGGCGUAAUGGUAUCGCAUCUCCCUCCUAAGGAGAAGACUGCGGGUACGAGUCCCGUACGGAACG	≤ 0.5

Variant	yeast fitness
GUUCCGUUGGCGUAAUCGUAACGCGUCUCCCUCCUAAGGAGUAGACUGCAGGUUCGAGUCCCGUACGGAACG	≤ 0.5
GUUCCGUUGGCCUAAUGGCAACGCGUCUCCCUCCUAAGGAGAAGACUGGGGGUUCGAGUCCCGUACGGCACG	≤ 0.5
GUUCCGCUGGCAUAAUGGUCACGAGUAUCCCUCCUCAGGAGAAGACUGCGGGUUCGAGUCCCGUACGGAACG	≤ 0.5
GUUCCGUCGGCGGAAUGGUAACGCGUCUCACUCCUAAGGAGAAGACUGCGGGUUCGAGUCCCGUACGGAUCG	≤ 0.5
GUUCCGUUGGCGUAAUGGUAACGCGUCUCCCUCCUAAGGAGAAAACUGCGGGUCCCAGUCCCGUACGGAACG	≤ 0.5
GUGCCGUUGGCGUAGUGGUAACGGGUCUCCCUCCUAAGGAGAAGACUGCAGGUUUGAGUCCCGUACGAAACG	≤ 0.5
GUUCCGUUGGCGUAAUGGUAACGCGUCUCCCUCCUAAGGAGGCGACUGCGGGUUCGAGUCCCGUACGGAACG	1.17
GUUCCGUUGGCGUAAUGGUAACGCGUCUCCCUCCUAAGAAGAAGACUGCGGGUUCCAGUCCCGUAAGGAACG	≤ 0.5
GUUCCCUUGGCGUAAUGGUAACGCGCCUCCCUCCCUAGGUGAAGACUGCGGGUUCGAGUCCCGUACGGAACG	≤ 0.5
GUUCCGUUGGCGUAAUAGUAAGGCGUCUUCCUCCUAAGGAGAAGACUGCGCGUUGGAGUCCCGUACGGAACG	≤ 0.5
GAUGCGUUGGCGUAAUGCUAACGCGUCUCCCUCCUAAGGAGAAGACUGCGGGUUCGAGUCCCGUACGGAACG	≤ 0.5
GUUCCGUUGGCACAAUGGUAACGCGUGUCCUUCAUAAGGAGAAGACUGCGGGUUCGAGUCCCGUACGGAACG	≤ 0.5
GUUCCGUUGGCGUAAUGGUCACGCGUCUCCCUCCUAAGGAGAAGAGUGAGGGUUCGAGUCUCGUACGGAACG	≤ 0.5
GUUCCGUUGGUGUAAUGGUAACGCGUCUCCCUCCUAAGGAGAAGACUGCGGGUUCGAGUCCCGUAGGGUACG	0.555
GUUCCGCUGGCGUGAUGGUAACGCGUCUUCUUUCUAAGGAGAAGACUGCGGGUUUGAGUCCCGUACGGAACG	≤ 0.5
GUUCCGUUGGCGUCAUGGUAACGCGUCUCCCUCCUAAGGUGAAGACUGCGGGUUGGAGUCUCGUAUGGAACG	≤ 0.5
GUUCCGAUGGCGUAAUGGUGACGCGUCUUCCUCCUAAGGAGAAGACUGCGGGUUCGCGUCCCGUACGGAACG	≤ 0.5
GUUCCAUUGGCGUAAUGGUAACGCGUCUCCCUCCUAAGGAGAAGACUGCGGGUUCGUGUCGCGUACGGAACG	≤ 0.5
GUUCCGUUGGCGUUGUGGUAACGCGUCUCCCUCCUAAGGAGAAGACUGCGGGUUCGAGUCCCGUACGGAACG	0.725
GUUCCGUUGGCGUAUUGGUACCGCGUCUCCCUUCUAUGGAGAAGACUGCGGGUUCGAGUCCCGUACGCAACG	≤ 0.5
GAUCCGUUGGUGUAACGGUAACGCGUCUCACUCCUAAGGAGAAGACUGCGGGUUCGAGUCCCGUACGGAACG	≤ 0.5
GUUACGUUGGCGUAAUGGUAACGCGUCUCCCUCCUUCGGAGAAGACCGCGGGUUCGAGUCCCGUACGCAACG	≤ 0.5
GUUCCGUUAGCGUAAUGGUAACGCGUCUCCCUCGUAACGAGAAGACUGCGGGUUCGAGUCCCGUACGGAACG	≤ 0.5
GUUCCGUUUGCGUAAUGGUAACGCGUUUACCUCCUAAGGAGAAGACUGCGGGUUCGAGUCCCGUACGGAACG	≤ 0.5
GUUCCCUUGGCGUAAUGGUAACACGUCUCCCUCUUAAGGAGAAGACUGCGCGUUCGAGUCCCGUACGGAACG	≤ 0.5

Variant	yeast fitness
GUUCCGUUCGCGUAAAGGUAUCGCGUCUCCCUCCUAAGGAGAAGACUGCGGGUUCGAGUCCCGUAUGGAACG	≤ 0.5
GUUCCGUUGGCGUAAUGGUAACGCGUCUCCCUCCUGUGGAGAAGACUGCGGGUUCGAGUCCCGUACGGCACG	0.663
GUUCCGUUGGUGUAAUGGUAACGCGUCUCCCUCCUAGGCAGAAGACUGCGAGUUCGAGUCCCGUACGGAACG	≤ 0.5
GUUUCGUUGGCGUAAUGGUAACGCGUCUCCCUCCUAAGGAGAAGACUGAGGGUUCGAGUCCCGUAUGGAACG	0.612
GUUCCGUUGGCGUAAUGGUAACGCGACUCCCUCCUAAGGAAACGACUGCGGGUUCGGGUCCCGUACGGAACG	≤ 0.5
GUUGUGUUGGCGUAAUGGUAACGCGUCUCCCUCCUAAGGAGAAGACUGCGGGUACGAGUCCCGUACGGAACG	≤ 0.5
GUUCCGUUGGCGUAAUGGUAACGCGUCUCCCUCCUAAGGAGAAGACUGCGGGUACGAGUCCUGUACGAAACG	0.504
GUUCCGUUGGCGUAAUGGUAACGUGUCUCCCUCCUAAGAAGAACACUGCGGGUUCGAGUCACCUACGGAACG	≤ 0.5
GUUCCGUUGGCGUAAUGGUAACGCGUGUCCCUUCUAAGGAGAUGACUGCGGGUUCGAGUCCCGUACGGAACG	≤ 0.5
GUUCCGUUGGCGUAAUGGUAACGCGUCUCCCUCAUAAGGAAAAGACUGCGGGUUCGAGGCCCGUACGGAACG	≤ 0.5
GUUCCGUUGGCGUUAUGGUAACGCGUCUGCCUCCUAAGGAGAAGACUGCGGGCGCGAGUCCCGUACGGAACG	0.571
GUACCGUUGGCGUAAUGGUAACGCGUAUCCCUCCUAAGGAGAAGACUGCGGGUUCGAGUCCCGUACGGUACG	0.627
GUUCCGUUGGCGUAAUGGUAACGGGUCUCGCUCCUUAGGAGAAGACUGCGGGUUUGAGUCCCGUACGGCACG	≤ 0.5
GUUCCGUUGGCGUAAUGGUAAAGCGUCUCCCUCCUAAGGAGAAGACUGUGCGUUCGAGUCCCAUACGGAACG	≤ 0.5
GUUCCGUAGGCGUAAUGGUAACGCGUCUCCCUCCUAAGGAGAACACUGCGGGUUCGAGUCUCGUACGGAACG	≤ 0.5
GUUCCGUGGGCGUAAUGGUACCGCGUCUCCCUCCUAAGGAGAAGACUGCGGGUUCCAGUCCCGUACGGAACG	0.766
GUUCCGUUGGCGUAAAGGUAACGCGUCUCCCUCCUAAGGAGAAGACUGCGGGUUCGUGUCCCGUACCGAACG	≤ 0.5
GUUCCGUUGGUGUAAUGGUAACGCGUCUCCGUCCUAAGGAGAAGAAUGCGGGUUCGAGUCCCGUACUGAACG	≤ 0.5
GUUCCGUUAGAGUAAUGGUAACGCGUCUCCCUCCUAAGGAGAAGACUGCGGGUUCGACUCCCGUACGGAACG	≤ 0.5
GGUCCGUUGGCGUAAUGGUAACGCGUCUCCCUCCUAAGGAGAAGCCUGCGGGUUCGAGUGCGGUACGCAACG	≤ 0.5
GUUGCGUUGGAGUCAUGGUAAGGCCUCUCCCUCCUAAGGAGAAAACUGCGGGUUCGAGUCGCGUACGGAACG	≤ 0.5
GUUCCGUUGGCGUAAUGGUAACGAGUCUCCUUCCUAAGGAGCAGACUGCGGGGUCGAGUCCCGUACGGAACG	≤ 0.5
GUUUGGUUGGCGUAAUGGUAACGCGUCUUCCUCCUAAGGAGAAGACUGCGGGUUCGAGUCCCAUGCGGAACG	0.535
GUUCGGUUCGCGUAAUGGUAACGCGUCUCCCUCCUAAGGAGAAGACUGCGGGUUCGAGUCCCGUAGGGAACG	≤ 0.5
GUUCCGUUGGCGUUAUGGUAACGGGUCUCCCUCCUAAGGAGAAGACUGCGGGUUCGAGUCCAGUACGGAACG	≤ 0.5
